{"source": "patent US20250066502A1", "about": "“MEDICAMENT FOR TREATMENT AND/OR PREVENTION OF CANCER” (TORAY INDUSTRIES, INC., priority 2021, published 2025)", "key": {"[1]": {"system": "human breast cancer cell line MDA-MB-231", "assay": "THP-1-mediated antibody-dependent phagocytic activity against MDA-MB-231", "type": "cell-based", "settings": "panobinostat 30 nM with anti-CAPRIN-1 antibody, N=3, p<0.001", "experimental": "(§1) Specifically, in each combination test group (a romidepsin combination test group and a panobinostat combination test group), the indicated drug used in combination was applied to human cancer cells, and then the cancer cells were cocultured with human monocytic cells (THP-1) in the presence of the anti-CAPRIN-1 antibody, and the antibody-mediated phagocytic activity against the cancer cells by THP-1 was evaluated. […] As a control, a test group without a drug used in combination was established. […] Further, dead cells were stained with propidium iodide (PI) (final concentration: 0.1 μg/mL), followed by the measurement of fluorescence from the cells by flow cytometry. PI-positive dead cells were excluded from analysis. The human monocytic cells THP-1 recognize an antibody bound onto cancer cells and phagocytize the cancer cells. At that time, if the cancer cells have been stained with calcein-AM, the monocytic cells ingesting the cancer cells by phagocytosis also become positive to calcein-AM. Thus, the phagocytic activity in this evaluation system was calculated as the ratio (%) of APC-positive/calcein-AM-positive cells to the whole calcein-AM-positive population."}, "[2]": {"system": "human ovarian cancer cell line TOV-21G", "assay": "THP-1-mediated antibody-dependent phagocytic activity against TOV-21G", "type": "cell-based", "settings": "panobinostat 30 nM with anti-CAPRIN-1 antibody, N=3, p<0.001", "experimental": "as §1"}}, "note": "For at least one compound, name, drawing or mass did not settle the structure."}
{"smiles": "Cc1[nH]c2ccccc2c1CCNCc1ccc(/C=C/C(=O)NO)cc1", "note": "[panobinostat, (2E)-N-Hydroxy-3-[4-({[2-(2-methyl-TH-indol-3-yl)ethyl]amino}methyl)phenyl]prop-2-enamide]", "values": [{"measurement": "phagocytic activity of drug combination test group vs test group without a drug (Student's t test)", "setting": "[1]", "value": "significantly higher"}, {"measurement": "phagocytic activity of drug combination test group vs test group without a drug (Student's t test)", "setting": "[2]", "value": "significantly higher"}]}
